Assay results as given in PubChem BioAssay AID1671190 (National Center for Advancing Translational Sciences (NCATS), 2021).
Hit rate of the full screen: of about 580,000 compounds, about 6,100 (1.1%) were called active. The inconclusive results got no clear call from the source; some entries with a clear call stand among them for comparison. Calls follow the shape of the dose curve; as a rule, active = well fitted inhibition curve with a large enough effect; inconclusive = small, poorly fitted or top-dose-only effect, or another doubt; inactive = no such curve, though single readings can be large or run the other way. Potencies of inconclusive entries are doubtful fits and often do not repeat.

Amino acid sequences for entries named in this document (tags omitted). A change or cut given only in a name is not applied to a line headed by its entry.
UniProt P18054: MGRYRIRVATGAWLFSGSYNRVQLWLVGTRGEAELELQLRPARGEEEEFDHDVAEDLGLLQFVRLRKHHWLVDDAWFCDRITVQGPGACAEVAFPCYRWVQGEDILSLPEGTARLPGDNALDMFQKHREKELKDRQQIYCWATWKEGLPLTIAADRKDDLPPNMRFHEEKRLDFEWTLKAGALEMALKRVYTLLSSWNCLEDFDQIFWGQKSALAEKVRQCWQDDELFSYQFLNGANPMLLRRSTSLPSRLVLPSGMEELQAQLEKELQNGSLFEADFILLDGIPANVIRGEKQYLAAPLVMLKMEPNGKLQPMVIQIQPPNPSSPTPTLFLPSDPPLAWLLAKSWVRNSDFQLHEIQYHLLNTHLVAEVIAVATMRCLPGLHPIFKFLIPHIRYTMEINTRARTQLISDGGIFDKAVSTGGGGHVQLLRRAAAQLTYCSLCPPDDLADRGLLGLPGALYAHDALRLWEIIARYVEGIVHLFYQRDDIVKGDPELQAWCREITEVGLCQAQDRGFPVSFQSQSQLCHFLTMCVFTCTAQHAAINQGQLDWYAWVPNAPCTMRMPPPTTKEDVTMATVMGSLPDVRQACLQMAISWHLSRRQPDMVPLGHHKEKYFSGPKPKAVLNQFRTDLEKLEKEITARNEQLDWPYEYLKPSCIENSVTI

Target: Polyunsaturated fatty acid lipoxygenase ALOX12 (Homo sapiens) (UniProt P18054)
Assay: Primary qHTS assay for inhibitors of human arachidonate 12S-lipoxygenase (ALOX12): Round 2
Settings: purified 12hLO, xylenol orange hydroperoxide absorbance; activity change, negative = inhibition: at 108 µM (top of the series) unless noted
Procedure, shortened: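 Purified human 12hLO (150 nM final) in 25 mM Hepes, 0.01% Triton X-100, pH 7.0 was preincubated 15 min at room temperature with compound. Then 40 uM arachidonic acid was added, 30 min. Hydroperoxide was read by Fe-XO absorbance ratio 573/405 nm.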
% is scaled to controls: 0 for no effect and ±100 for the full control effect; potency is read from the fitted curve at half-maximal effect.

| Compound | Potency | activity change, negative = inhibition |
| --- | --- | --- |
| CCOC(=O)C1=CN(Cc2ccccc2)CCC1=O | inconclusive: 31.6 µM [inhibitor, single point] | – |
| COc1ccc(CCCc2n[nH]c(=S)n2C)cc1C | inconclusive: 89.1 µM [inhibitor, partial curve, poor fit] | – |
| Cc1nc2ccc(S(=O)(=O)NC(C(=O)N3CCN(c4cccc(Cl)c4)CC3)C(C)C)cc2s1 (centres undefined) | inconclusive: 3.98 µM [inhibitor, full curve, poor fit] | – |
| COc1ccc(-c2cc(N3CCCC(NC(=O)c4ccc(C)cc4)C3)n[nH]2)cc1 (centres undefined) | inconclusive: 70.8 µM [inhibitor, partial curve, poor fit] | – |
| CC(C)CC(=O)Nc1n[nH]c2c1CN(C(=O)C1CCN(C)CC1)C2(C)C | inactive | – |
| CC(C)NC(=O)N1C2CCC1CN(c1ccc(C(F)(F)F)cc1)C2 | – | inactive: 1.85% [at 6.33 µM] |
| CCOC(=O)c1noc2ncn(CC(=O)Nc3cc(C)c(Cl)cc3OC)c(=O)c12 | inconclusive: 44.7 µM [inhibitor, single point] | – |
| O=C1[C@H]2[C@H](ON3CCCC[C@H]23)C(=O)N1c1ccc(Cl)cc1 | inactive | – |
| Clc1ccc(CN2C3=NCCN3c3ccccc32)cc1 | inconclusive: 50.1 µM [inhibitor, single point] | – |
| CC[C@H](C)[C@H](N)C(=O)N1CCC2(CC1)Nc1ccccc1NC2=O | inconclusive: 17.8 µM [inhibitor, full curve, poor fit] | – |
| c1ccc2c(c1)CC/C2=N/Nc1nc2ccccc2[nH]1 | inconclusive: 79.4 µM [inhibitor, single point] | – |
| CCc1ccc(S(=O)(=O)N2CC(=O)Nc3ccccc32)cc1 | inactive | – |
| COc1ccccc1CC(=O)N1CCc2c(nc[nH]c2=O)C1 | inconclusive: 7.08 µM [inhibitor, full curve, poor fit] | – |
| COc1ccc(S(=O)(=O)N2CCCC2C(=O)n2nc(C)cc2C)cc1 (centres undefined) | inconclusive: 126 µM [inhibitor, partial curve, poor fit] | – |
| Nc1c(C(=O)O)sc2nc(-c3ccccc3)cc(-c3ccc(Cl)cc3)c12 | inconclusive: 112 µM [inhibitor, single point] | – |
| O=C(c1cccnc1)N1CCCC(c2noc(COc3ccccc3F)n2)C1 (centres undefined) | inactive | – |
| CCOC(=O)N1CCN(C(=O)c2ccc3c(c2)N(Cc2cccc(Cl)c2)C(=O)c2ccccc2S3=O)CC1 (centres undefined) | inactive | – |
| C=CCN(CC=C)C(=S)NC(=O)c1ccc(C)c(Br)c1 | inconclusive: 50.1 µM [inhibitor, partial curve, poor fit] | – |
| CCN(CC)Cc1cnc2c(C(=O)N3CCCC(COC)C3)cnn2c1 (centres undefined) | inactive | – |
| COC(=O)Nc1nncs1 | inconclusive: 112 µM [inhibitor, single point] | – |
| COCc1[nH]nc2c1C(c1sccc1C)C(C#N)=C(N)O2 (centres undefined) | inconclusive: 50.1 µM [inhibitor, partial curve, poor fit] | – |
| O=C(Nc1ccc(C(=O)N2CCCC2)cc1)c1ccccc1Br | inconclusive: 50.1 µM [inhibitor, partial curve, poor fit] | – |
| CCNC(=O)COc1ccc(NC(=O)c2nn(CC)c(=O)c3ccccc23)cc1 | inactive | – |

Arranged by length of the SMILES (rising): part of the list above.

| Compound | Potency | activity change, negative = inhibition |
| --- | --- | --- |
| COC(=O)Nc1nncs1 | inconclusive: 112 µM [inhibitor, single point] | – |
| CCOC(=O)C1=CN(Cc2ccccc2)CCC1=O | inconclusive: 31.6 µM [inhibitor, single point] | – |
| COc1ccc(CCCc2n[nH]c(=S)n2C)cc1C | inconclusive: 89.1 µM [inhibitor, partial curve, poor fit] | – |
| Clc1ccc(CN2C3=NCCN3c3ccccc32)cc1 | inconclusive: 50.1 µM [inhibitor, single point] | – |
| c1ccc2c(c1)CC/C2=N/Nc1nc2ccccc2[nH]1 | inconclusive: 79.4 µM [inhibitor, single point] | – |
| C=CCN(CC=C)C(=S)NC(=O)c1ccc(C)c(Br)c1 | inconclusive: 50.1 µM [inhibitor, partial curve, poor fit] | – |
| COCc1[nH]nc2c1C(c1sccc1C)C(C#N)=C(N)O2 (centres undefined) | inconclusive: 50.1 µM [inhibitor, partial curve, poor fit] | – |
| CCc1ccc(S(=O)(=O)N2CC(=O)Nc3ccccc32)cc1 | inactive | – |
| CCN(CC)Cc1cnc2c(C(=O)N3CCCC(COC)C3)cnn2c1 (centres undefined) | inactive | – |
| O=C(c1cccnc1)N1CCCC(c2noc(COc3ccccc3F)n2)C1 (centres undefined) | inactive | – |
| COc1ccc(S(=O)(=O)N2CCCC2C(=O)n2nc(C)cc2C)cc1 (centres undefined) | inconclusive: 126 µM [inhibitor, partial curve, poor fit] | – |
| Nc1c(C(=O)O)sc2nc(-c3ccccc3)cc(-c3ccc(Cl)cc3)c12 | inconclusive: 112 µM [inhibitor, single point] | – |
| CC(C)CC(=O)Nc1n[nH]c2c1CN(C(=O)C1CCN(C)CC1)C2(C)C | inactive | – |
| O=C1[C@H]2[C@H](ON3CCCC[C@H]23)C(=O)N1c1ccc(Cl)cc1 | inactive | – |
| CCOC(=O)c1noc2ncn(CC(=O)Nc3cc(C)c(Cl)cc3OC)c(=O)c12 | inconclusive: 44.7 µM [inhibitor, single point] | – |
| COc1ccc(-c2cc(N3CCCC(NC(=O)c4ccc(C)cc4)C3)n[nH]2)cc1 (centres undefined) | inconclusive: 70.8 µM [inhibitor, partial curve, poor fit] | – |
| Cc1nc2ccc(S(=O)(=O)NC(C(=O)N3CCN(c4cccc(Cl)c4)CC3)C(C)C)cc2s1 (centres undefined) | inconclusive: 3.98 µM [inhibitor, full curve, poor fit] | – |
| CCOC(=O)N1CCN(C(=O)c2ccc3c(c2)N(Cc2cccc(Cl)c2)C(=O)c2ccccc2S3=O)CC1 (centres undefined) | inactive | – |

The list continues.

| Compound | Potency | activity change, negative = inhibition |
| --- | --- | --- |
| CN(C)S(=O)(=O)N1CCN(CC(O)COc2ccc3cc(Br)ccc3c2)CC1 (centres undefined) | inconclusive: 112 µM [inhibitor, partial curve, poor fit] | – |
| Cc1cc(C(=O)OCC(=O)NC2CCS(=O)(=O)C2)c(C)n1-c1ccccc1 (centres undefined) | inactive | – |
| Cc1ccc(-c2nc3ccccn3c2Nc2ccc3c(c2)OCCO3)o1 | inconclusive: 0.501 µM [inhibitor, single point] | – |
| CN(C)c1ccc(CN[C@H]2[C@H](O)[C@@H](N(C)CCc3ccccn3)[C@@H]3OC[C@H]2O3)cc1 | inactive | – |
| CSc1nc(=S)cc(C)[nH]1 | inconclusive: 5.01 µM [inhibitor, full curve, poor fit] | – |
| Cc1onc(-c2ccccc2)c1NC(=O)OC(C)c1cccnc1 (centres undefined) | inactive | – |
| CCC(=O)N/N=C/c1ccc(-c2ccc([N+](=O)[O-])cc2)o1 | inconclusive: 50.1 µM [inhibitor, partial curve, poor fit] | – |
| CC(C(=O)Nc1ccc(S(=O)(=O)N2CCCC2)cc1)N(C)CC(=O)Nc1cccc(F)c1 (centres undefined) | inactive | – |
| c1ccc(CN2CCn3c(nnc3C3CCNCC3)C2)cc1 | inconclusive: 12.6 µM [inhibitor, full curve] | – |
| Cc1ccc(Sc2ccc(N=CN(C)C)cc2)cc1C | inconclusive: 39.8 µM [inhibitor, partial curve, poor fit] | – |
| Cc1cc(Br)ccc1NC(=O)C1C2CCC(O2)C1C(=O)O (centres undefined) | active: 5.01 µM | – |
| CCc1nc2nc(C)c(NS(=O)(=O)c3ccc(C)c(C)c3)c(=O)n2[nH]1 | inconclusive: 126 µM [inhibitor, single point] | – |
| NCC(c1ccco1)N1CCCC1 (centres undefined) | inconclusive: 2.82 µM [inhibitor, full curve, poor fit] | – |
| O=C(c1cc(F)cc(F)c1)N(Cc1ccco1)C1CC1 | inconclusive: 35.5 µM [inhibitor, partial curve, poor fit] | – |
| Cc1cc(/C=C2/NC(=O)NC2=O)c(C)n1-c1ccccn1 | inconclusive: 50.1 µM [inhibitor, partial curve, poor fit] | – |
| O=C(Nc1cccc(Cl)c1)c1c(-c2ccc(F)cc2)nc2n1CCS2(=O)=O | inactive | – |
| CC(=O)N1CCN(c2ccc(NC(=O)c3ccc(F)cc3)cc2)CC1 | inconclusive: 44.7 µM [inhibitor, partial curve, poor fit] | – |
| COc1ccc(CNC(=O)c2ccc(-c3ccc(F)c(F)c3)c3ccoc23)cc1OC | inactive | – |
| N=c1c2c(ncn1Cc1ccco1)Oc1c(ccc3ccccc13)C2c1ccccc1 (centres undefined) | inactive | – |
| CN1CC(=O)N(C2CCCNC2)Cc2c(NCC3CCCCCC3)ncnc21 (centres undefined) | inconclusive: 2.24 µM [inhibitor, full curve] | – |
| COc1cccc(C(=O)N2CCN(Cc3ccccn3)CC2)c1 | inconclusive: 2.82 µM [inhibitor, partial curve, poor fit] | – |
| CCCC(=O)NNc1cc(=O)c2c(=O)n(C)c(=O)n(C)c2[nH]1 | active: 15.8 µM | – |
| CCCC(O)(CCC)C(=O)NNc1ccc(C)cc1 | inconclusive: 100 µM [inhibitor, single point] | – |

| Compound | Potency | activity change, negative = inhibition |
| --- | --- | --- |
| N#Cc1ccc(C(=O)NCCc2cccnc2)cc1 | inactive | – |
| O=C(NCc1cccnc1)c1ccccc1-c1nc(-c2ccccc2)no1 | inconclusive: 35.5 µM [inhibitor, partial curve, poor fit] | – |
| CCCCOc1ccc(OCCSc2nc3ccccc3n2CC(=O)O)cc1 | inconclusive: 50.1 µM [inhibitor, partial curve, poor fit] | – |
| O=C(Nc1ccnn1Cc1ccc(Cl)cc1)c1cc(=O)c2ccccc2o1 | inactive | – |
| O=C(COc1ccccc1)N1CCOCC12CCN(Cc1ccccc1)CC2 | inactive | – |
| COC(=O)c1nc2n(n1)C(c1cc(OC)ccc1OC)C=C(c1ccc(Br)cc1)N2 (centres undefined) | inconclusive: 22.4 µM [inhibitor, partial curve] | – |
| Cc1noc(C)c1C(=O)N1CCN(c2cc(Cl)ncn2)C(=O)C1 | inconclusive: 50.1 µM [inhibitor, partial curve] | – |
| O=C(c1ccccc1F)N1c2nc(-c3ccco3)nn2C2(CCCCC2)[C@@H]2CCCC[C@@H]21 | inactive | – |
| O=C(Nc1ccc(Nc2ccncc2)cc1)c1ccc(Nc2ccnc3ccc([N+](=O)[O-])cc23)cc1 | inconclusive: 25.1 µM [inhibitor, partial curve, poor fit] | – |
| COc1ccc(/C=C/C(=O)N/C(=C\c2ccco2)C(=O)NCCc2nc3ccccc3[nH]2)cc1 | inconclusive: 79.4 µM [inhibitor, partial curve, poor fit] | – |
| COC(=O)c1ccc(CSc2n[nH]c(=S)s2)o1 | active: 15.8 µM | – |
| CCCc1noc(-c2ccn3c(CNC(=O)c4ccccc4Cl)nnc3c2)n1 | active: 39.8 µM | – |
| COc1ccc(CCNC(=O)CSc2n[nH]c(C)c2[N+](=O)[O-])cc1OC | inconclusive: 50.1 µM [inhibitor, partial curve, poor fit] | – |
| O=C(O)C1C2C=CC(O2)C1C(=O)Nc1cc(OCC(F)(F)F)cc(OCC(F)(F)C(F)F)c1 (centres undefined) | inconclusive: 31.6 µM [inhibitor, full curve, poor fit] | – |
| Cc1sc(NC(=S)Nc2ccc(F)cc2)c(C(N)=O)c1C | inconclusive: 44.7 µM [inhibitor, partial curve] | – |
| COc1ccc(C2C3=C(CC(C)(C)CC3=O)OC(N)=C2[N+](=O)[O-])cc1 (centres undefined) | inactive | – |
| N#Cc1ccc(NC(=O)c2cc(S(=O)(=O)N3CCOCC3)ccc2N2CCCC2)cc1 | inconclusive: 35.5 µM [inhibitor, partial curve, poor fit] | – |
| CC(=O)c1cccc(OCC(=O)N(C)CC(=O)NCc2ccco2)c1 | inactive | – |
| C/C(=N\N=C(N)N)c1ccc(Cl)c(Cl)c1 | inactive | – |
| Cc1ccccc1NCC(=O)N1CCN(S(=O)(=O)c2ccc3ccccc3c2)CC1 | inconclusive: 44.7 µM [inhibitor, partial curve, poor fit] | – |
| Nc1nc2cc3ccccc3cc2[nH]c1=O | inconclusive: 17.8 µM [inhibitor, partial curve, poor fit] | – |
| Cc1c(Cl)cccc1NS(=O)(=O)c1ccc(NS(=O)(=O)c2ccc3c(c2)OCCO3)cc1 | inactive | – |
| Cc1nnc([C@H]2CCN(Cc3cnc4ccccc4c3)C2)o1 | inconclusive: 11.2 µM [inhibitor, full curve] | – |
